Experimental data as given in PMC5899830.

Protein sequences, listed by entry. Tags and fused reporters are not part of them. Lines headed by an entry give the natural chain unless they say otherwise; changes in a name come on top.
UniProt Q8IJW6: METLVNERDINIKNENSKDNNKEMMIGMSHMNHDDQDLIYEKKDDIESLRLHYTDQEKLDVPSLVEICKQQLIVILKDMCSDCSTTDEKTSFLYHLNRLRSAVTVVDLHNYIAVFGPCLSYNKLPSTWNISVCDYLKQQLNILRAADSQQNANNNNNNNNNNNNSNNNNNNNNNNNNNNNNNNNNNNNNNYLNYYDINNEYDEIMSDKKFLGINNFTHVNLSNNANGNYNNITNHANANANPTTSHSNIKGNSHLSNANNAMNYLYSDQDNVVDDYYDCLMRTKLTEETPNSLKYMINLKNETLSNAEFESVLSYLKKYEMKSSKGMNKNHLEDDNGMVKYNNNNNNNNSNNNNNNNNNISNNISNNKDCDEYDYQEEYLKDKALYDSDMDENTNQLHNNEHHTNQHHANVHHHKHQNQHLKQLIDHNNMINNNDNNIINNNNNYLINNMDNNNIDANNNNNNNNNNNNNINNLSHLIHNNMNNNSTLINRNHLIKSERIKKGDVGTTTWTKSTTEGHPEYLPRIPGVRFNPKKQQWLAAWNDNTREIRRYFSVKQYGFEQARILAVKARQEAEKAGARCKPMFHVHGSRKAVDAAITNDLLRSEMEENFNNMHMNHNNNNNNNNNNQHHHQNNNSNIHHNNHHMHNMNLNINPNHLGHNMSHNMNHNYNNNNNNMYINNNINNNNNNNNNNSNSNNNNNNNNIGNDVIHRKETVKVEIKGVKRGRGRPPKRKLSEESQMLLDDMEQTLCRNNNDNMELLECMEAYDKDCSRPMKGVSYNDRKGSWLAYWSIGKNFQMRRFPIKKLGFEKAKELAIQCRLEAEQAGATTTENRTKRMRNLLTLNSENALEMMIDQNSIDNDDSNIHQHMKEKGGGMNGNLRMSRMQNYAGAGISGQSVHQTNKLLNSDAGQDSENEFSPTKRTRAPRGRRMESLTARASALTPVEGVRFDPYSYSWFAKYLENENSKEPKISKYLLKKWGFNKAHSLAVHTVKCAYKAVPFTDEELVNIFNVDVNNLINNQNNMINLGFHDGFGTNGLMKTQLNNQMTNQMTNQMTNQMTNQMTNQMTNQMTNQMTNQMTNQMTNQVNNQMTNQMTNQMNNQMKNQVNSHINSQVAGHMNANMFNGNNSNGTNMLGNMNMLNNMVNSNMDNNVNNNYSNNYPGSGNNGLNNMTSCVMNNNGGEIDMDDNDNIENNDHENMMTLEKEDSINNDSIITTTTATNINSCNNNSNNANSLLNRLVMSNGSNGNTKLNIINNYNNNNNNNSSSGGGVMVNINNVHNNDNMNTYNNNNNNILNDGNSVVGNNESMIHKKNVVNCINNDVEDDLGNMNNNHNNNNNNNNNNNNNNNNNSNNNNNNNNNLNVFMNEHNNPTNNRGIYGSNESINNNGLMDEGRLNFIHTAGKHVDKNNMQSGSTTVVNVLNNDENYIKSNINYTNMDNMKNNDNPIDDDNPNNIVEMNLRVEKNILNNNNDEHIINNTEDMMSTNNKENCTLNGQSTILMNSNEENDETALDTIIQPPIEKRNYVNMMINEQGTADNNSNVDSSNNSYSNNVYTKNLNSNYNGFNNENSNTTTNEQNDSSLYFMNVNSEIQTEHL
UniProt Q8IJ72: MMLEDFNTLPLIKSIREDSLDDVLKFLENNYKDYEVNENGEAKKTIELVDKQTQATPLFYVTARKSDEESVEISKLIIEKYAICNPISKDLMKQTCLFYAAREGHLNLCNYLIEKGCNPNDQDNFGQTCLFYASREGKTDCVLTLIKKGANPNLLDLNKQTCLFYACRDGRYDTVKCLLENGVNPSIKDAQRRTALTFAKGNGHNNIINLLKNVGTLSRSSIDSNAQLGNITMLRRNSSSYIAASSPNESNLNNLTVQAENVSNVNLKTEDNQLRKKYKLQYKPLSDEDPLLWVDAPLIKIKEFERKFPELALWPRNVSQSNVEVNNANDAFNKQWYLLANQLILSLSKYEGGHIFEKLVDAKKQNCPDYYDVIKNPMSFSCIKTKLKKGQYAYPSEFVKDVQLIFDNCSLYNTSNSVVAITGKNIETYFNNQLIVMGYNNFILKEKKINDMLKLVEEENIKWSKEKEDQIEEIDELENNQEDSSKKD
UniProt Q8I5S4: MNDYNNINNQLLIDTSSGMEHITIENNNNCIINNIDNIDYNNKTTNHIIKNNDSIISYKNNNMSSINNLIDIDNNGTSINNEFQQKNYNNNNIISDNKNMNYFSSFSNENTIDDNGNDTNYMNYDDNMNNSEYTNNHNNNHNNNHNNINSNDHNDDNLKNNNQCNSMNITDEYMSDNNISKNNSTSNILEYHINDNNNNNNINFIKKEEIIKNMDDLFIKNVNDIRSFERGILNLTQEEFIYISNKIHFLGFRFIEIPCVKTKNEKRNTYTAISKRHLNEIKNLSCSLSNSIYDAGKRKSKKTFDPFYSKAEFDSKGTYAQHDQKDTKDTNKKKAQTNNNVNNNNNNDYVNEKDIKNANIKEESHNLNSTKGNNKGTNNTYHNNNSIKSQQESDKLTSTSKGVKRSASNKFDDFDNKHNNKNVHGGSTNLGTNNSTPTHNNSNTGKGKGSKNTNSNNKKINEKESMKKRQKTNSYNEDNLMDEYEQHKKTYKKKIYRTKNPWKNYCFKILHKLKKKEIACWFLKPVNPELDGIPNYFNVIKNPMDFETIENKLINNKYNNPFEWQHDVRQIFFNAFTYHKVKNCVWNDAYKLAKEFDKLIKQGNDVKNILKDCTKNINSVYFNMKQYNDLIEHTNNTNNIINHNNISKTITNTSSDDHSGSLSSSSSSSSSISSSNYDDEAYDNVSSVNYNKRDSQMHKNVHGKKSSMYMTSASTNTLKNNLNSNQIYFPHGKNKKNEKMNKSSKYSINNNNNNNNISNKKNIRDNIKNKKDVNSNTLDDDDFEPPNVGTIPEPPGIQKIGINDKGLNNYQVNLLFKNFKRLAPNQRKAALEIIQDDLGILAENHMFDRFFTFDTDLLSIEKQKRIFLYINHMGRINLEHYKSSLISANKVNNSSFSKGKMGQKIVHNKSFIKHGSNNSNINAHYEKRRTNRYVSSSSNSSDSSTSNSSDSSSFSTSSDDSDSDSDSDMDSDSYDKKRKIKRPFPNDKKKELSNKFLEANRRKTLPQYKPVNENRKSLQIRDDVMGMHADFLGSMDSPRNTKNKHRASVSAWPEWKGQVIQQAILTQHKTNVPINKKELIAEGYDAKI

Biological target: AP2-I (P. falciparum 3D7 (endogenous in nuclear extract)) (UniProt Q8IJW6)
Test: affinity purification with mass spectrometry; DNA pull-down: biotinylated dsDNA probes (three different probes with de_novo_motif_028, …) on streptavidin Sepharose, incubated 1.5 h at 4°C with native nuclear protein extract of asynchronous P. falciparum 3D7 (150 mM NaCl, HEPES, 0.125% NP-40, tRNA, poly(dI:dC), poly(dA:dT)); same probes with scrambled motif as control; dimethyl labelling with label swap, quantitative tandem MS; the bait is DNA, proteins found enriched together

| binding | Substance |
| --- | --- |
| binds | bromodomain protein 1 (from UniProt Q8IJ72) |
| binds | bromodomain protein 2 (from UniProt Q8I5S4) |

These are yes or no findings as the source states them, for the method shown. In cells and extracts the contact can be indirect. These calls come from enrichment with a bait or labelling near it, and not all partners need be listed.
